# PubChem BioAssay AID2685 (National Center for Advancing Translational Sciences (NCATS), 2010)
# This is one part of the list. The main result of the screen is listed elsewhere. These columns were measured beside it and carry no call. The list favours compounds with an active or inconclusive main result. Words in brackets tell the shape of the fitted curve; partial curves, single points and poor fits give uncertain potencies.
# Experiment: qHTS Assay for Lipid Storage Modulators in Drosophila S3 Cells;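 on cell number change: cells counted by Cell Tracker Red CMTPX staining in the red channel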
# Conditions: BODIPY lipid droplet fluorescence, 18-24 h; for cell number change: measured here: cell count max response, cells fed with added oleic acid
# Method in brief: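 Drosophila S3 cells got compounds at several concentrations plus oleic acid (400 uM solution). Laser-scanning cytometry with 488 nm excitation read lipid droplets at 500-530 nm and cells at 575-640 nm. Percent activity was relative to 20 uM Triacsin C.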
# [1] = measured here: cell number channel AC50, cells fed with added oleic acid
# [2] = measured here: lipid fluorescence (Fed channel) AC50, cells fed with added oleic acid
Compound,cell number change,AC50 [1],AC50 [2]
O=C(CNC(=O)c1cccc(F)c1)OCCOc1cccc(Cl)c1,-4.04%,,
CC1CN(S(=O)(=O)c2cccc(C(=O)NCCCn3ccnc3)c2)CC(C)O1 (stereo unspecified),109%,"16.4 µM [rising, partial curve, poor fit]","0.58 µM [rising, single point]"
COC(=O)C(NC(=O)CCc1nnc2ccc(N3CCC(C)CC3)nn12)C(C)C (stereo unspecified),15.8%,,"0.58 µM [falling, full curve, poor fit]"
CCCCC1CCC(C(=O)N(CC(C)C)c2c(N)n(Cc3ccccc3)c(=O)[nH]c2=O)CC1 (stereo unspecified),-49.1%,"0.92 µM [falling, full curve]","0.206 µM [falling, full curve, poor fit]"
CCCCS(=O)CC(O)COc1ccc(C(C)(C)C)cc1 (stereo unspecified),-11.3%,,"29.1 µM [rising, single point]"
COc1cccc(CN2CC(C(=O)N3CCN(c4ccc(Cl)cc4)CC3)CCC2=O)c1 (stereo unspecified),24.9%,,
COc1ccc(C(=O)N2CCCC(CCC(=O)N3CCN(c4ccccn4)CC3)C2)cc1 (stereo unspecified),,,"29.1 µM [falling, single point]"
CCn1cc(CN2CCC(n3nccc3NC(=O)CCCc3ccccc3)CC2)cn1,-1.39%,,
COc1cc2c(cc1OC)C(c1ccc(Br)cc1)NC(=O)C2 (stereo unspecified),42.8%,"10.3 µM [rising, partial curve]","29.1 µM [rising, single point]"
O=[N+]([O-])c1ccccc1/C=N/N1CCN(c2ccncc2S(=O)(=O)N2CCCCC2)CC1,-27.4%,,
Cc1nn(CCOc2ccccc2)c(=O)n1-c1ccccc1F,26.5%,,"29.1 µM [rising, single point]"
COc1ccccc1NC(=O)C1=C(C)Nc2nnnn2C1c1cccc(C)c1 (stereo unspecified),,,"0.103 µM [falling, single point]"
CN(C)S(=O)(=O)c1cccn1-c1ncc(C(F)(F)F)cc1Cl,,,"20.6 µM [rising, partial curve]"
CN1CCN(c2nc3c(c(=O)n(C)c(=O)n3C)n2Cc2ccc(F)cc2)CC1,-4.67%,,"11.6 µM [rising, single point]"
O=C(CN1CCCC1)N/N=C/c1c(O)ccc2ccccc12,-11%,,"6.51 µM [rising, single point]"
CSc1nnc(SCC#N)s1,30.3%,"14.6 µM [rising, single point]","16.4 µM [rising, single point]"
COc1ccccc1NS(=O)(=O)c1ccc2c(c1)n(C)c(=O)n2C,44.9%,"0.411 µM [rising, full curve]","13 µM [rising, partial curve]"
Cc1oc(=O)c(NC(=O)c2cccc(Cl)c2)cc1C(=O)c1ccccc1,-15.5%,,"29.1 µM [falling, partial curve, poor fit]"
CCOC(=O)Cn1nc(-c2ccc(F)cc2)oc1=O,16.3%,,
O=c1ccc(Cc2ccc(Cl)cc2)n[nH]1,13.1%,,"29.1 µM [falling, single point]"

Compound,cell number change,AC50 [1],AC50 [2]
CSc1nnc(CNC(=O)c2ccccc2)n1-c1ccc(F)cc1,-99.2%,"32.6 µM [falling, partial curve]","6.51 µM [falling, partial curve, poor fit]"
N#CCCn1cc(/C=C2\NC(=S)N(c3ccccc3)C2=O)c(-c2ccc(F)cc2)n1,-33.1%,"29.1 µM [falling, single point]","29.1 µM [falling, single point]"
Cc1nc2sc(C(c3cccs3)N3CC(C)CC(C)C3)c(O)n2n1 (stereo unspecified),-23.9%,,"32.6 µM [falling, single point]"
COc1ccc(CN(C)C(=O)CNC(=O)c2ccc3ccccc3c2)c(OC)c1,-3.42%,,"6.51 µM [rising, single point]"
CN(Cc1cccc(F)c1)C(=O)CN1CCN(S(=O)(=O)c2ccc3c(c2)OCCCO3)CC1,-7.42%,"2.31 µM [falling, single point]",
COc1ccc(-c2c(C#N)c(N)nc3c2CCc2ccccc2-3)cc1OC,20.1%,,"9.2 µM [rising, partial curve, poor fit]"
COc1ccc(-c2nc3n(c(=O)c2C#N)CCS3)cc1OC,14.2%,,"29.1 µM [rising, single point]"
O=C(Cc1ccccc1)NC1(Cc2ccc(O)cc2)CCCCC1,22.6%,"0.103 µM [rising, full curve, poor fit]",
CCn1ccc(C(=O)Nc2ccc(Cl)cn2)n1,35.9%,"1.16 µM [rising, full curve, poor fit]","2.91 µM [falling, single point]"
CN1C(=O)NC(NC(=O)c2ccncc2)(C(F)(F)F)C1=O (stereo unspecified),-4.74%,,"16.4 µM [falling, single point]"
Fc1ccc(-c2ccc(/C=N/n3cnnc3)o2)cc1,,,"4.11 µM [falling, single point]"
O=C(Cn1cnc2ccccc21)Nc1cccc(S(=O)(=O)N2CCCC2)c1,-30.3%,"11.6 µM [falling, partial curve]","1.3 µM [falling, partial curve]"
CCc1nn(C(C)C(=O)NCc2cccc(Cl)c2)c(=O)c2cc3occc3n12 (stereo unspecified),,,"29.1 µM [falling, single point]"
CC(=O)Nc1ccc(C(=O)CSc2nnc3scc(-c4ccccc4)n23)cc1,20.5%,"0.259 µM [rising, full curve, poor fit]",
COc1ccc(C(=O)Nc2ccc(O)cc2C(=O)O)cc1,-19.2%,,"7.94 µM [falling, partial curve]"
COC(=O)c1ccccc1NC(=O)CSc1nc2c(c(=O)[nH]1)CCC2,,"6.51 µM [falling, single point]","0.58 µM [rising, single point]"
CCOc1ccc(CNc2ccc(N3CCN(Cc4ccccc4)CC3)cc2)cc1,,,"0.82 µM [falling, full curve, poor fit]"
Cc1sc2ncnc(N3CCC(C(=O)Nc4ccc(C#N)cc4)CC3)c2c1C,28.2%,,"0.82 µM [rising, partial curve]"
CCS(=O)(=O)N1CCN(C(=O)c2cccc(OC)c2)CC1,-0.606%,,"1.03 µM [falling, full curve]"
CCN(CC)C(=O)CSc1nc2cc3c(cc2c(=O)n1CCCCCC(=O)NCc1ccc(OC)cc1)OCO3,-49.8%,"29.1 µM [falling, single point]",

Compound,cell number change,AC50 [1],AC50 [2]
CC(=O)c1ccc(N2CCN(c3ccc(S(=O)(=O)N4CCN(C)CC4)cn3)CC2)cc1,20.5%,,"6.51 µM [rising, full curve]"
CC(Oc1cccc(Cl)c1)C(=O)Nc1ccccc1N1CCCC1 (stereo unspecified),,"6.51 µM [falling, single point]",
O=C(NC(=O)c1ccc(Cl)cc1)OC1CCCCC1,34%,"5.8 µM [rising, partial curve]","10.3 µM [rising, partial curve]"
CC1(C(=O)NCc2ccc(Cl)c(Cl)c2)Oc2ccccc2NC1=O (stereo unspecified),,"1.84 µM [rising, partial curve, poor fit]","2.31 µM [rising, partial curve]"
CC(C)CC(NC(=O)OC(C)(C)C)C(=O)O (stereo unspecified),15.2%,,
O=c1oc2ccccc2cc1-c1cn2cccnc2n1,24.6%,,"3.26 µM [rising, single point]"
O=C(CN1CCN(S(=O)(=O)c2ccccc2)CC1)Nc1cccc(C(F)(F)F)c1,-63.8%,"14.6 µM [falling, partial curve]","0.146 µM [falling, full curve, poor fit]"
CCN(CC)CCn1cnc2c1c(=O)n(CCOC(=O)c1cc(OC)c(OC)c(OC)c1)c(=O)n2C,36.8%,"0.103 µM [rising, partial curve]","8.2 µM [rising, partial curve, poor fit]"
CCOc1cc(C(=S)N2CCCCC2)ccc1OS(=O)(=O)c1ccc(Cl)cc1,-23%,,"32.6 µM [falling, single point]"
Cc1ccc2c(c1)COc1c3ccc(C(=O)N4CCOCC4)cc3nn1-2,5.2%,,"0.58 µM [rising, full curve]"
COc1ccc(OC)c(NC(=O)CSc2nnc(CNc3ccc(C)cc3C)o2)c1,1.43%,,"0.206 µM [rising, full curve]"
O=c1[nH][nH]c(=S)n1C1CCCCC1,-32.5%,"29.1 µM [falling, single point]","32.6 µM [falling, single point]"
Cc1ccccc1-n1c(SCC(N)=O)nc2sc(-c3ccccc3)cc2c1=O,55.8%,"1.46 µM [rising, full curve]",
CC1=C(C(=O)Nc2cccc(F)c2)C(c2ccsc2)C2=C(CC(C)(C)CC2=O)N1 (stereo unspecified),13.8%,,"0.0411 µM [rising, partial curve, poor fit]"
Cc1ccc2nc(-c3ccccc3N)[nH]c2c1,-3.49%,,"29.1 µM [rising, single point]"
O=c1oc2c(-c3cccc(F)c3)cc(O)cc2s1,-28.1%,,"25.9 µM [falling, single point]"
Cc1ccc(C)c(S(=O)(=O)N2CCN(c3ncccn3)CC2)c1,-0.184%,,
Cn1c(Cc2cccs2)nnc1SCC(=O)Nc1ccccc1,,,"3.66 µM [rising, full curve]"
CC1C(=O)CCC1(C(=O)O)c1ccccc1 (stereo unspecified),0.974%,,"4.11 µM [falling, single point]"

# Three compounds drawn at random from the list so far, as already listed:
Compound,cell number change,AC50 [1],AC50 [2]
CSc1nnc(SCC#N)s1,30.3%,"14.6 µM [rising, single point]","16.4 µM [rising, single point]"
CCn1ccc(C(=O)Nc2ccc(Cl)cn2)n1,35.9%,"1.16 µM [rising, full curve, poor fit]","2.91 µM [falling, single point]"
COc1ccccc1NS(=O)(=O)c1ccc2c(c1)n(C)c(=O)n2C,44.9%,"0.411 µM [rising, full curve]","13 µM [rising, partial curve]"
